The text below walks through data of publication PMC10853778 (Nucleic Acids Research, 2022).

No constants are given. Whether binding was seen depends on the method and setting.

The assay addresses T1, RTEL1 harmonin homology domain 2 (residues 1056-1140) (human) (UniProt Q9NZ71).
T1 sequence: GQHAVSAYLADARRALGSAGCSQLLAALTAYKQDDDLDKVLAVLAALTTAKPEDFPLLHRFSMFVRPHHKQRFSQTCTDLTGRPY
Kind of assay: NMR titration; 15N-labelled partner titrated with unlabelled partner; 1H-15N HSQC, 25°C, 20 mM Tris-HCl pH 7.4, 50 mM NaCl, 2 mM DTT, 0.02% NaN3; Kd and Koff from TITAN 2D lineshape analysis, two-state model; both purified.

B1: RTEL1 harmonin homology domain 1 (residues 886-978) (domain or fragment, UniProt Q9NZ71-6 886-978)
chain: EPVAGAQTDRAKLFMVAVKQELSQANFATFTQALQDYKGSDDFAALAACLGPLFAEDPKKHNLLQGFYQFVRPHHKQQFEEVCIQLTGRGCGY
As to B1, the binding entry is “no binding”.
